Experimental data published in publication doi:10.1101/2022.10.21.513235.
No constants are given. Whether binding was seen depends on the method and setting. In cells and extracts the contact can be indirect. Some binding calls cover weakened binding; strength is not graded here.

Chains of the proteins cited; added tags and fusions are not shown. Lines headed by an entry give the natural chain unless they say otherwise; changes in a name come on top. A line that says so, or that is headed by a name, gives the form on record, which may keep a tag or linker.
UniProt Q9UH17: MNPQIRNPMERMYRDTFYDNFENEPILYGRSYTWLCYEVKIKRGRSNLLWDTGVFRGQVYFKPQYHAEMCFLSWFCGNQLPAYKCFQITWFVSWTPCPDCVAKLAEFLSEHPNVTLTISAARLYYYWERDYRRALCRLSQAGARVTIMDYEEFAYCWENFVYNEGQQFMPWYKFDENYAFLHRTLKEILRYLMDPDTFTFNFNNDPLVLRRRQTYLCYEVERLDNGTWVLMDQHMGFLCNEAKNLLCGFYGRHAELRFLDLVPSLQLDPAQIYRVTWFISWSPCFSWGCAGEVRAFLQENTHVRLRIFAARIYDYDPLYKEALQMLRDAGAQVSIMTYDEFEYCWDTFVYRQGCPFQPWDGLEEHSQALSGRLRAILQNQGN
TDRD3 isoform 1 (Q9H7E2-3, form named): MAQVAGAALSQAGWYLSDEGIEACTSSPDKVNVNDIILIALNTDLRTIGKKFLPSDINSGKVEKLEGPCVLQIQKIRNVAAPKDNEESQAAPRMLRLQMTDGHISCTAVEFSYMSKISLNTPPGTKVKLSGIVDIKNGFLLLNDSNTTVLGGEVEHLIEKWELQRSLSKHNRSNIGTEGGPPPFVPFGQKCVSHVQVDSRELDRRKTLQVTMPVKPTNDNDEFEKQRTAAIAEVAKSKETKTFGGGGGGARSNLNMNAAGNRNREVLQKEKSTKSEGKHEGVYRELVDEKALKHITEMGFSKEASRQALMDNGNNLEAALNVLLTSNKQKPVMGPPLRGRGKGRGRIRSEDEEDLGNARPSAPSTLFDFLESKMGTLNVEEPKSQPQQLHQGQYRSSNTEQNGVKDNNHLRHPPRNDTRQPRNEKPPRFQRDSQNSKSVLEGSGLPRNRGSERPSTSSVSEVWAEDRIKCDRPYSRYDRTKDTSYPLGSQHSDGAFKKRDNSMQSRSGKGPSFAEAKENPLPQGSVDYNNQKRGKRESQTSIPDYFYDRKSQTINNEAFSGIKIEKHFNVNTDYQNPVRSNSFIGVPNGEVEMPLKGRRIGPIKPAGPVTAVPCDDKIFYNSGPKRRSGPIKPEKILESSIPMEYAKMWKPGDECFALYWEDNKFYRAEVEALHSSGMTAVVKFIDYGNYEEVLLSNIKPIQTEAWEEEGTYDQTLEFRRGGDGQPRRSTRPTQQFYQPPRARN
TDRD3 isoform 3 (Q9H7E2-2, form named): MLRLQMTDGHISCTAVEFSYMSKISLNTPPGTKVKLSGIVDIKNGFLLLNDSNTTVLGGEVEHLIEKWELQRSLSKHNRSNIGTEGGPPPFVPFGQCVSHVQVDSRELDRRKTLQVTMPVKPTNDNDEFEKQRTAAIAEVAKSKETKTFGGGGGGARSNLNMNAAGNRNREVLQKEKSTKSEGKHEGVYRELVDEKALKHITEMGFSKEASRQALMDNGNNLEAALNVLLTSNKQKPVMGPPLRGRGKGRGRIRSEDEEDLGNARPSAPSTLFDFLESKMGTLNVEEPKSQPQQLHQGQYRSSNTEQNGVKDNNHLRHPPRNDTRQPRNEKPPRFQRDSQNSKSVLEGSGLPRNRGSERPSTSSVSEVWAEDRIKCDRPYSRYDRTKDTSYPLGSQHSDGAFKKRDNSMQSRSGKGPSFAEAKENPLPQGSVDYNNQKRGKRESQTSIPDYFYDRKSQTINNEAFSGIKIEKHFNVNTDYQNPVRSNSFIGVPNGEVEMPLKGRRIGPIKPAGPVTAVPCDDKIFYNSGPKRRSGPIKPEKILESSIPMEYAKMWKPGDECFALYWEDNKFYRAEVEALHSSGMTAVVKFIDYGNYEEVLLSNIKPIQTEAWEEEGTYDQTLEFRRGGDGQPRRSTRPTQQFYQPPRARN

Biological target: APOBEC3B (apolipoprotein B mRNA-editing enzyme catalytic polypeptide-like 3B) (human (in T-47D cells)) (UniProt Q9UH17)
Test: co-IP

binding | Substance
binds | TDRD3 isoform 1 (from UniProt Q9H7E2-3 1-744)
no binding | TDRD3 isoform 3 (from UniProt Q9H7E2-2 1-650)
